The list shows a part of the results. The main result of the screen is listed elsewhere. These columns were measured beside it and carry no call. Compounds called inactive in the main read-out are mostly missing here. Potencies come from curve fits of mixed quality, noted in brackets.
Test: qHTS Assay for Lipid Storage Modulators in Drosophila S3 Cells;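 for cell number change: cells counted by Cell Tracker Red CMTPX staining in the red channel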
Conditions: BODIPY lipid droplet fluorescence, 18-24 h; for cell number change: measured here: cell count max response, cells fed with added oleic acid
Method in brief: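 Drosophila S3 cells got compounds at several concentrations plus oleic acid (400 uM solution). Laser-scanning cytometry with 488 nm excitation read lipid droplets at 500-530 nm and cells at 575-640 nm. Percent activity was relative to 20 uM Triacsin C.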

[1] = measured here: cell number channel AC50, cells fed with added oleic acid
[2] = measured here: lipid fluorescence (Fed channel) AC50, cells fed with added oleic acid

In the case of `NNC(=O)c1ccc(-c2cccc([N+](=O)[O-])c2)o1`, the cell number change is reported as 31.3% and the AC50 [1] is reported as 29.1 µM [rising, single point].

With `C#CCOCCOCCOCCNc1nc(N2CCN(C(=O)[C@H](CCCCN)n3cc([C@@H](N)CO)nn3)CC2)nc(N2CCN(C(=O)[C@H](Cc3cc4ccccc4[nH]3)n3cc([C@@H](N)CO)nn3)CC2)n1` the cell number change was 4.42% and the AC50 [2] was 3.26 µM [falling, single point].

In the case of `Cc1ccc(S(=O)(=O)N/N=C2/CCCCC2C2CCCCC2)cc1[N+](=O)[O-]` (stereo unspecified), the cell number change is reported as -2.82%, the AC50 [1] is reported as 0.461 µM [rising, single point] and the AC50 [2] is reported as 0.00461 µM [falling, full curve].

For `Cc1ccc(SCC(=O)OCC(=O)N(CC(C)C)c2c(N)n(Cc3ccccc3)c(=O)[nH]c2=O)cc1C`, the cell number change was 96% and the AC50 [1] was 23.1 µM [rising, partial curve].

With `COC(=O)c1ccc(NC(=S)Nc2ccc(O)cc2)cc1` the cell number change was 108%, the AC50 [1] was 18.4 µM [rising, partial curve] and the AC50 [2] was 23.1 µM [rising, single point].

With `CC(C)(C)NC(=O)c1c(F)c(F)c(F)c(F)c1F` the cell number change was -20.4% and the AC50 [2] was 0.184 µM [falling, partial curve, poor fit].

For `O=C(CNCc1ccc(Cl)cc1)Nc1ccc(C(=O)N2CCCCC2)cc1`, the cell number change was -3.91% and the AC50 [2] was 29.1 µM [falling, single point].

With `CC(O)CO` (stereo unspecified) the cell number change was -4.66% and the AC50 [2] was 1.16 µM [rising, single point].

In the case of `COc1ccc(CCNC(=O)CCOc2ccc(C)cc2)cc1OC`, the cell number change is reported as -16.7% and the AC50 [2] is reported as 1.64 µM [rising, partial curve].

For `O=C(N/N=C/c1ccc(-c2cccc([N+](=O)[O-])c2)o1)c1ccccc1O`, the cell number change was -10.1% and the AC50 [1] was 0.461 µM [rising, single point].

With `Cc1ccc(C(=O)CC2(O)C(=O)N(C)c3ccc(Br)cc32)c(C)c1` (stereo unspecified) the cell number change was -31.4%, the AC50 [1] was 23.1 µM [falling, single point] and the AC50 [2] was 29.1 µM [falling, single point].

In the case of `CCn1c(SCC(=O)Nc2ccc(F)cc2)nc2ccccc2c1=O`, the cell number change is reported as 22%, the AC50 [1] is reported as 0.164 µM [rising, full curve, poor fit] and the AC50 [2] is reported as 4.11 µM [rising, full curve].

In the case of `Cc1cc(NC(=O)CCN2C(=O)c3ccccc3C2=O)no1`, the cell number change is reported as -6.23% and the AC50 [1] is reported as 0.116 µM [falling, full curve, poor fit].

`Cc1nc(Cc2nnc(SCC(=O)N3CCN(c4ccc(F)cc4)CC3)o2)cs1` gave a cell number change of -9.97%.

In the case of `CC(C)c1ccccc1NC(=O)c1ccc(CN(c2ccccc2)S(=O)(=O)c2ccccc2)cc1`, the cell number change is reported as -25.8% and the AC50 [1] is reported as 0.00411 µM [rising, full curve, poor fit].

With `COc1ccccc1CN(C)CC(=O)Nc1cccc2ccccc12` the cell number change was -40.5% and the AC50 [1] was 20.6 µM [falling, partial curve].

In the case of `COc1cnn(-c2ccccc2)c(=O)c1OC`, the cell number change is reported as -2.46% and the AC50 [2] is reported as 3.26 µM [rising, single point].

With `COc1c2ccccc2nc2ccccc12` the cell number change was 1.69% and the AC50 [2] was 29.1 µM [rising, single point].

For `COC(=O)c1ccc(Cn2cc(C(F)(F)F)cc([N+](=O)[O-])c2=O)cc1`, the cell number change was 19.8% and the AC50 [2] was 6.51 µM [rising, single point].

In the case of `CCCCC(C(=O)NC1CCCC1)N(Cc1ccccc1)C(=O)c1snc(C(N)=O)c1N` (stereo unspecified), the cell number change is reported as -28.9% and the AC50 [2] is reported as 6.31 µM [falling, single point].

Molecule `Cc1ccccc1OCC(=O)NCCCNC(=O)c1cccnc1` has a cell number change of 7.92%.

In the case of `CC(=O)NC1C(OCCOc2ccc(Cl)cc2Cl)OC(COC(C)=O)C(OC(C)=O)C1OC(C)=O` (stereo unspecified), the cell number change is reported as 1.13% and the AC50 [2] is reported as 0.58 µM [rising, single point].

Source: PubChem BioAssay AID2685 (National Center for Advancing Translational Sciences (NCATS), 2010)
